# In PubChem BioAssay AID504648 (National Center for Advancing Translational Sciences (NCATS), 2011):
# About 610 (0.16%) of roughly 390,000 compounds were called active. The shares of active, inactive and inconclusive entries below differ from those in the screen. The call rests on the fitted dose curve; in most records, active means well fitted inhibition curve with a large enough effect; inconclusive means small, poorly fitted or top-dose-only effect, or effect the other way, or another doubt; inactive means no such curve, though single readings can be large or run the other way. Where the call is inconclusive, the potency comes from a doubtful curve fit.
# Test: Nrf2 qHTS screen for inhibitors: counterscreen for cytotoxicity
# Conditions: A549 ARE-Fluc cells, CellTiter-Fluor viability, 18-24 h; series mostly up to 46 µM
# In short: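 Cytotoxicity counterscreen: CellTiter-Fluor fluorescence was measured in A549 ARE_Fluc cells after 18-24 h of compound exposure in a concentration series. The subsequent BugLite luminescent read reports ARE-luciferase activity.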
# Potency means the concentration at half of the fitted maximal effect.
row,Compound,Potency
1,CN(C(=O)c1cccc(NC(=O)Cc2ccc(NC(=O)C3CCCN(C(=O)C4CCCCC4)C3)cc2)c1)C1CCC1 (centres undefined),inactive
2,COc1ccc(C2=CC(c3cccc(C)c3)n3nnnc3N2)cc1 (centres undefined),inactive
3,COc1ccc2cc(-c3[nH]ncc3CN3CCCN(c4ccccc4)CC3)ccc2c1,"inconclusive: 20.6 µM [falling, single point]"
4,COc1ccc(Cn2c(C)c(C)c(C#N)c2NC(=O)Nc2cccc(C)c2)cc1,"inconclusive: 29.1 µM [falling, partial curve, poor fit]"
5,Cc1ccc(/C=C2/SC(=S)N(CCCC(=O)Nc3ccc(O)cc3)C2=O)cc1,"inconclusive: 20.6 µM [falling, single point]"
6,Cc1cccc(NC(=O)c2oc3ccccc3c2NC(=O)c2cc(=O)c3cc(Cl)ccc3o2)c1,inactive
7,COc1ccc2c(c1)[nH]c1c(N3CCSCC3)ncnc12,"inconclusive: 32.6 µM [falling, partial curve, poor fit]"
8,Cn1nc(C(F)(F)F)c(/C=N/OC(=O)c2ccccc2Cl)c1SCc1ccc(Cl)cc1,"inconclusive: 20.6 µM [falling, single point]"
9,OCc1ccc(O)c2ncccc12,"inconclusive: 29.1 µM [falling, single point]"
10,COc1cc(C2C3=C(COC3=O)OC(C)(C)Oc3cc4c(cc32)OCO4)cc(OC)c1OC (centres undefined),"inconclusive: 8.2 µM [falling, partial curve, poor fit]"
11,COc1ccc(CCNC(=O)CCCn2c(=O)c3cccn3c3cccnc32)c(OC)c1OC,inactive
12,O=C(c1cccs1)N1N=C(c2ccccc2)CC1c1ccccc1 (centres undefined),"inconclusive: 18.4 µM [falling, single point]"
13,COc1cccc(CNC(=O)CN2C(=O)COc3ccc(S(=O)(=O)Nc4ccccc4)cc32)c1,inactive
14,CC(=O)N1CC(C)Sc2ccc(S(=O)(=O)N3CCCCC3)cc21 (centres undefined),"inconclusive: 0.82 µM [activator, partial curve, poor fit]"
15,COC(=O)Cc1c(C)c2ccc(OCC(=O)N3CCCC(C)C3)c(C)c2oc1=O (centres undefined),inactive
16,COc1ccc(Br)cc1CNC(=O)c1nn(-c2ccc(C)cc2)c(=O)c2c1c1ccccc1n2C,inactive
17,Cc1nc2ccc(S(=O)(=O)NC(CC(C)C)C(=O)N3CCN(c4ccc(F)cc4)CC3)cc2s1 (centres undefined),inactive
18,COc1cc(CC(=O)Nc2cccc(S(=O)(=O)N(C)c3ccccc3)c2)cc(OC)c1OC,"inconclusive: 32.6 µM [falling, partial curve, poor fit]"
19,CCCCN(c1nc2ccccc2nc1Cl)S(=O)(=O)c1ccc(C)cc1,inactive

# Some of the entries so far, as tab-separated lines.
row	Compound	Potency
12	O=C(c1cccs1)N1N=C(c2ccccc2)CC1c1ccccc1 (centres undefined)	inconclusive: 18.4 µM [falling, single point]
13	COc1cccc(CNC(=O)CN2C(=O)COc3ccc(S(=O)(=O)Nc4ccccc4)cc32)c1	inactive
